Source: PubChem BioAssay AID504774 (Drosophila RNAi Screening Center, 2011)
The deposit covers about 23,000 reagents; below is a random part of those that have a named target and a result. 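Values are quantile-normalised luminescence on an arbitrary scale; higher means more cells surviving MMS.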 A plus sign joins genes that one reagent is predicted to hit.

Test: 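Knock-downs that shift viability of MMS-exposed cells relative to untreated ones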 (primary screen)
System: Drosophila Kc167 cells
Knock-down reagent: long dsRNA against Drosophila genes, about 0.25 µg dsRNA per well
Timing: about 6 days: 3 days knock-down, then 3 days with or without MMS
Treatment: methyl methanesulphonate 0.004% (w/v) for 3 days after knock-down
Detection: 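ATP-dependent luminescence as a measure of live cells in MMS-exposed wells, quantile normalised within each plate, with replicate values also given as a mean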
Reading the numbers: mean viability with MMS and viability with MMS: higher = more surviving cells after MMS

target	PubChem SID	mean viability with MMS	viability with MMS, replicate 1	viability with MMS, replicate 2
mex1	SID104191160	3.35e6	3.87e6	3.66e6
CG42394 + CG6567	SID104192613	3.40e6	3.88e6	3.85e6
CG11131	SID104191428	3.70e6	4.21e6	4.09e6
CG11131	SID104201406	3.41e6	3.91e6	3.88e6
yellow-d	SID104184381	3.58e6	3.95e6	4.17e6
Gasz	SID104186621	3.66e6	4.05e6	4.27e6
Drsl6	SID104187953	3.66e6	4.14e6	4.10e6
CG13862	SID104194504	3.53e6	4.14e6	3.87e6
CG3568	SID104198104	3.62e6	4.13e6	4.08e6
Galphao	SID104187222	3.62e6	4.12e6	4.09e6
CG34187 (retired record)	SID104185335	3.54e6	3.96e6	4.07e6
CG31337	SID104192773	3.72e6	4.16e6	4.14e6
CG34309	SID104194630	3.83e6	4.31e6	4.36e6
CG15611	SID104186355	3.54e6	4.04e6	3.99e6
CG15611	SID104186356	3.57e6	3.98e6	4.12e6
Mi-2	SID104191014	3.23e6	3.67e6	3.63e6
Wdr81	SID104182777	3.57e6	4.10e6	4.01e6
CG32512	SID104200311	3.53e6	3.91e6	4.11e6
CG32512	SID104200343	3.41e6	3.85e6	3.87e6
CG32512	SID104201163	3.55e6	4.06e6	4.00e6
Wdr82	SID104182387	3.62e6	4.39e6	3.84e6
Wdr82	SID104201395	3.21e6	3.75e6	3.78e6
kto	SID104190775	3.51e6	4.03e6	3.91e6
PGAP2	SID104180424	3.16e6	3.35e6	3.61e6
CG8910	SID104187206	3.54e6	3.95e6	4.08e6
AGBE	SID104186653	3.14e6	3.68e6	3.62e6
Tango1	SID104181919	3.31e6	3.85e6	3.49e6
fl(2)d	SID104187412	3.54e6	4.04e6	3.95e6
Ist1	SID104189489	3.70e6	4.27e6	4.14e6
firl	SID104182220	3.83e6	4.32e6	4.21e6
CG11112	SID104185830	3.50e6	3.91e6	4.04e6
Alg10	SID104190684	3.58e6	4.01e6	4.09e6
CG15571	SID104197851	3.66e6	4.25e6	4.06e6
CG6836	SID104190514	3.54e6	4.04e6	3.99e6
scpr-B	SID104194992	3.49e6	3.91e6	3.97e6
Arpc4	SID104182709	3.26e6	3.80e6	3.43e6
CG13855	SID104194497	3.41e6	3.90e6	3.86e6
ric8b + ric8a	SID104197896	3.61e6	4.05e6	4.10e6
CG8736	SID104187047	3.61e6	4.02e6	4.12e6
Gr33a	SID104182381	3.58e6	4.13e6	3.99e6
Hsp67Ba	SID104190983	3.38e6	3.78e6	3.82e6
CG31835 + CG42585	SID104181204	3.58e6	4.15e6	3.95e6
CG43737	SID104199401	3.42e6	3.90e6	3.81e6
CG31680	SID104201512	3.68e6	4.12e6	4.14e6
CG6607	SID104195865	3.42e6	3.80e6	3.90e6
RpL41	SID104202315	3.35e6	3.90e6	3.85e6
CG32264	SID104187853	3.10e6	3.56e6	3.66e6
CG32264	SID104187959	3.65e6	4.04e6	4.18e6
CG32264	SID104187961	3.67e6	4.15e6	4.19e6
CG32264	SID104188077	3.60e6	3.94e6	3.78e6
CG32264	SID104188229	3.27e6	3.69e6	3.75e6
CG12851	SID104183923	3.44e6	3.81e6	3.97e6
ash2	SID104196694	3.43e6	3.93e6	3.85e6
RpS16	SID104184234	3.12e6	3.55e6	3.51e6
Stoml2	SID104184118	3.34e6	4.41e6	3.87e6
CG10317	SID104194021	3.51e6	4.02e6	3.94e6
Fit2	SID104190700	3.72e6	4.27e6	4.10e6
Gyg	SID104183642	3.21e6	3.73e6	3.71e6
Gyg	SID104184348	3.53e6	4.13e6	3.88e6
CG9368	SID104190859	3.42e6	3.81e6	3.92e6
Ciz1	SID104189467	3.09e6	3.55e6	3.47e6
CG42249	SID104199175	3.58e6	4.06e6	4.04e6
CG42249	SID104199618	3.61e6	4.16e6	4.00e6
rt	SID104191183	3.53e6	3.95e6	4.06e6
RpL28 + snoRNA:Or-CD12	SID104188085	3.27e6	3.70e6	3.72e6
CtsF	SID104191848	3.65e6	4.34e6	3.87e6
CtsF	SID104191987	3.51e6	4.15e6	3.81e6
CtsF	SID104191988	3.36e6	3.80e6	3.86e6
Rpt3R	SID104196293	3.35e6	3.85e6	3.81e6
beat-IIIa	SID104181367	3.57e6	4.05e6	4.02e6
beat-IIIa	SID104181369	3.60e6	4.10e6	4.04e6
beat-IIIa	SID104181970	3.46e6	3.99e6	3.86e6
Fatp2	SID104183763	3.35e6	3.78e6	3.85e6
Fatp2	SID104183970	3.84e6	4.41e6	4.18e6
Fatp2	SID104184122	3.60e6	4.14e6	4.02e6
meep	SID104187740	3.49e6	4.05e6	3.86e6
CG13461	SID104189800	3.52e6	4.07e6	3.89e6
CG15423	SID104180229	3.50e6	3.98e6	3.95e6
CG1946	SID104186596	3.48e6	3.93e6	3.97e6
Zmynd8	SID104195102	3.68e6	4.35e6	3.97e6
PIG-B	SID104188008	3.66e6	4.19e6	4.11e6
PIG-B	SID104202015	3.66e6	4.08e6	4.14e6
CG7164	SID104182810	3.44e6	3.96e6	3.81e6
CG14401	SID104182177	3.59e6	3.99e6	4.15e6
CG14401	SID104201386	3.24e6	3.82e6	3.74e6
sktl	SID104184507	3.45e6	3.73e6	4.00e6
OtopLc	SID104197874	3.62e6	4.09e6	4.12e6
OtopLc	SID104197875	3.49e6	3.99e6	3.93e6
OtopLc	SID104197924	3.72e6	4.33e6	4.11e6

A portion of the results above, as a working copy:
target	PubChem SID	mean viability with MMS	viability with MMS, replicate 1	viability with MMS, replicate 2
yellow-d	SID104184381	3.58e6	3.95e6	4.17e6
Gasz	SID104186621	3.66e6	4.05e6	4.27e6
Drsl6	SID104187953	3.66e6	4.14e6	4.10e6
CG13862	SID104194504	3.53e6	4.14e6	3.87e6
CG3568	SID104198104	3.62e6	4.13e6	4.08e6
Galphao	SID104187222	3.62e6	4.12e6	4.09e6
CG34187 (retired record)	SID104185335	3.54e6	3.96e6	4.07e6
CG31337	SID104192773	3.72e6	4.16e6	4.14e6
